Structures can show the parent of a compound that is named as a salt. The list shows a part of the results. Hit calls seldom repeat between salt and free forms of one compound.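 Kinases, fused to nanoluciferase, were expressed in K562 cells; luminescence was measured every 4 h from 2 to 18 h as percent of control (DMSO = 100%, positive control = 0%). A time point is decreased if signal falls significantly (2 sigma). Hits were called by the authors by a rule that is not shown; the count of time points alone does not decide it.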
Assays:
Assay in all cases: number of time points (of 5) at which kinase-Nluc abundance scored as decreased, DMSO-normalised (count); higher = more persistent destabilization
Conditions in all cases: K562; 2-18 h
[1] = target: CSNK1A1 (UniProt P48729)
[2] = target: CSNK1D (UniProt P48730)
[3] = target: DDR1 (UniProt Q08345)
[4] = target: DYRK1B (UniProt Q9Y463)
[5] = target: DYRK2 (UniProt Q92630)
[6] = target: EGFR (UniProt P00533)
[7] = target: EGFR_G719S (UniProt P00533)
[8] = target: EGFR_G719S_T790M (UniProt P00533)
[9] = target: EGFR_L718V (UniProt P00533)
[10] = target: EGFR_L858R (UniProt P00533)

Amino acid sequences for entries named in this document (tags omitted). A change or cut given only in a name is not applied to a line headed by its entry.
UniProt P48729: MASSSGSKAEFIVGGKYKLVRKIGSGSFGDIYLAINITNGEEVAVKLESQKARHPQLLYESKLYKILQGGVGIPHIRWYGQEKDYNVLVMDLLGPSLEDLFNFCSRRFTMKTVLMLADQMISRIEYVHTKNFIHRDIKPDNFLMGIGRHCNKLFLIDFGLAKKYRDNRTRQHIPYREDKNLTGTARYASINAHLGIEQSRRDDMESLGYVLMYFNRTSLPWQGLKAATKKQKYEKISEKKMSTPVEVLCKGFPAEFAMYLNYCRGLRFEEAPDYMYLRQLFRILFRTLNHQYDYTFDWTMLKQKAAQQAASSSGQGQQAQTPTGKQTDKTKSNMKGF
UniProt P48730: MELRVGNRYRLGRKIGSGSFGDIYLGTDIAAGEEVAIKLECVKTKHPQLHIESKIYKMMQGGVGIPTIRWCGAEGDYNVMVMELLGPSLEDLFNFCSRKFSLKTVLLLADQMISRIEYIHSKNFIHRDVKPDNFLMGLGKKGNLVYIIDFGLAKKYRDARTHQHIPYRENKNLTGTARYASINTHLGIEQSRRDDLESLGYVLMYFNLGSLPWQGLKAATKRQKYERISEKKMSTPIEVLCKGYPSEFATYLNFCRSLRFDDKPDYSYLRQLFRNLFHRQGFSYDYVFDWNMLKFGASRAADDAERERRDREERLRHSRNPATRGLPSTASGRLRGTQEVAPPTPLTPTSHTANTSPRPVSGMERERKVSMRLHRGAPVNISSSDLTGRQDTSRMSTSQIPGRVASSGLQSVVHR
UniProt Q08345: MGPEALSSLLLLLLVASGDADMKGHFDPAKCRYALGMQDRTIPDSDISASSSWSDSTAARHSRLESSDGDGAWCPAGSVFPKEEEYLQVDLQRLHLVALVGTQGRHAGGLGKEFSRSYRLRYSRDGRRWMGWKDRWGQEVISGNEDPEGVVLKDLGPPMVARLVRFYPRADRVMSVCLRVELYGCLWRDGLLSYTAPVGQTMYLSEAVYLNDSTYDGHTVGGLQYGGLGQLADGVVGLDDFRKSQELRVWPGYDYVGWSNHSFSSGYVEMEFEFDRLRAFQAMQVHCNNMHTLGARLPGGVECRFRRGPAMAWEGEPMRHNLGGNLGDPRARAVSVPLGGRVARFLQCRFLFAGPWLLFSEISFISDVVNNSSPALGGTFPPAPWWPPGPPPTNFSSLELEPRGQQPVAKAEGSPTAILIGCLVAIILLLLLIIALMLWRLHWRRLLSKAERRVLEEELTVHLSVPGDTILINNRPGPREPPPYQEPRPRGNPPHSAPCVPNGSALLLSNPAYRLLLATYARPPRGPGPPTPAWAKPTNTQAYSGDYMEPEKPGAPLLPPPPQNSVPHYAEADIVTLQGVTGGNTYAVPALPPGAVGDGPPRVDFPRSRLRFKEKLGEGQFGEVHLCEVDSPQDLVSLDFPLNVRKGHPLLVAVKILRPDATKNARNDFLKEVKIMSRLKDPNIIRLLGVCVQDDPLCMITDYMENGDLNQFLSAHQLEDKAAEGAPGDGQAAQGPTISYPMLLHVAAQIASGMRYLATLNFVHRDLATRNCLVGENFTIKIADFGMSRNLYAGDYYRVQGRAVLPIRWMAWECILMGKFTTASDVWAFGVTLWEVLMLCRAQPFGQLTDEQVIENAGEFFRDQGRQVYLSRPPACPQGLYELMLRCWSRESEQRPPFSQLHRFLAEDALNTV
UniProt Q9Y463, whole entry, looked up: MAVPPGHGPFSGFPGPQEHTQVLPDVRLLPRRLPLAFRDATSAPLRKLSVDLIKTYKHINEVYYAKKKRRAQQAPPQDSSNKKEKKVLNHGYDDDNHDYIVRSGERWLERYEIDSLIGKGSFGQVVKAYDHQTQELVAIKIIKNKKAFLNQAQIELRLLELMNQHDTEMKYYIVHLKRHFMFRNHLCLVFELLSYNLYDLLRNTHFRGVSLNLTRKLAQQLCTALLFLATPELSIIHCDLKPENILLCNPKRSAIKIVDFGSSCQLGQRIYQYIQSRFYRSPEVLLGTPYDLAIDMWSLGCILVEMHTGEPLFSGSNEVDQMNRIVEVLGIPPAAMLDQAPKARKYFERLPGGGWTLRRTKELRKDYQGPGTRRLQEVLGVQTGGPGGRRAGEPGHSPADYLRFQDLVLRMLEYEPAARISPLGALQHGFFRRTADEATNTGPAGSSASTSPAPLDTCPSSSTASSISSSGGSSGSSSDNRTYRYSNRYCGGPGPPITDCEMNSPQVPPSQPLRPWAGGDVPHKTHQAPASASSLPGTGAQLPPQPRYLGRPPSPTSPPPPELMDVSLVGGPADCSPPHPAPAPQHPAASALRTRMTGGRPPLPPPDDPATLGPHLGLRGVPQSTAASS
UniProt Q92630: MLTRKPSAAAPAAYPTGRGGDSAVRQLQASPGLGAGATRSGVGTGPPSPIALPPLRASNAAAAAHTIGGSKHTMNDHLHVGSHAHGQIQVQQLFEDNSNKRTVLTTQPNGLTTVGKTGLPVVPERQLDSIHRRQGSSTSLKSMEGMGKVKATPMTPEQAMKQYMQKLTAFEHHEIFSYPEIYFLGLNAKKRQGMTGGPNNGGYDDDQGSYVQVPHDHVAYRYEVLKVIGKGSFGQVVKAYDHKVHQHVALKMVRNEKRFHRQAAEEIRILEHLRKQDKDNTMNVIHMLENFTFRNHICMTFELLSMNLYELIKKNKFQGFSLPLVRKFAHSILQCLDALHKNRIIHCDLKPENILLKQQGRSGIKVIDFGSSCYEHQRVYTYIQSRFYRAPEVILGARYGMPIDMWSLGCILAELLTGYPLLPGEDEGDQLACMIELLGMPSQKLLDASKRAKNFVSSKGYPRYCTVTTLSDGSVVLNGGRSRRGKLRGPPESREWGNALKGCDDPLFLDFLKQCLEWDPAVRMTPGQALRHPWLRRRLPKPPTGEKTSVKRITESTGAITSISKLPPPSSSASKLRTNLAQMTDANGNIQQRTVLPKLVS

Measured: number of time points

Cc1ccc(Nc2cc(-c3cccc(N4C(=O)c5ccccc5C4=O)c3)ncn2)cc1NS(C)(=O)=O (10 µM)
1: [4] | [5]
0: all other assays above

C#CCN(C)C(=O)CCNc1nc(N2CCN(C(=O)C=C)CC2)c2cc(Cl)c(-c3c(O)cccc3F)c(F)c2n1 [ARS-1323-alkyne] (2.5 µM)
0: all assays above

Cn1cc(Nc2nccc(N3C[C@H]4CC[C@@H](C3)N4C(=O)[C@@H]3CC3(F)F)n2)cn1 (10 µM)
0: all assays above

COc1cc([N+](=O)[O-])ccc1S(=O)(=O)N1C[C@@H](CN2CCN(c3ccccn3)CC2)[C@H](c2cccc(F)c2)C1 (relative stereo) (10 µM)
0: all assays above

Cc1ccc(S(=O)(=O)/C=C/C#N)cc1 (10 µM)
0: all assays above

Cn1cnc(-c2cc3nccc(Oc4ccc(NC(=S)NC(=O)Cc5ccccc5)cc4F)c3s2)c1 [MGCD-265 analog] (10 µM)
4: [5]
1: [6]
2: [3]
0: all other assays above

COc1ccc(C2CC(c3ccccc3)=NN2c2ccc(S(N)(=O)=O)cc2)cc1 (stereo not given) (10 µM)
0: all assays above

OCCNC1CCCc2c1[nH]c1ccc(-c3ccccc3)cc21 (stereo not given) (2.5 µM)
1: [3] | [4] | [7]
2: [5]
0: all other assays above

COc1ccc(C(=C2C(=O)Nc3ccccc32)c2ccc(OC)cc2)cc1 (10 µM)
0: all assays above

CNCc1ccccc1-c1csc([C@@H](C)Nc2nc(C)nc3cc(OC)c(OC)cc23)c1 (2.5 µM)
1: [4] | [10]
3: [8]
2: [5]
0: all other assays above

c1cn2cc(-c3ccc4cn[nH]c4c3)nc(Nc3ccc(N4CCOCC4)cc3)c2n1 [Entospletinib] (10 µM)
0: all assays above

O=C(/C=C/c1ccc(O)c(O)c1)OC1CC(OC(=O)/C=C/c2ccc(O)c(O)c2)(C(=O)O)CC(O)C1O (stereo not given) [1,3-Dicaffeoylquinic acid] (10 µM)
0: all assays above

Part of the list above in order of heavy-atom count, smallest number first:
Cc1ccc(S(=O)(=O)/C=C/C#N)cc1 (10 µM)
0: all assays above

OCCNC1CCCc2c1[nH]c1ccc(-c3ccccc3)cc21 (stereo not given) (2.5 µM)
1: [3] | [4] | [7]
2: [5]
0: all other assays above

COc1ccc(C(=C2C(=O)Nc3ccccc32)c2ccc(OC)cc2)cc1 (10 µM)
0: all assays above

Cn1cc(Nc2nccc(N3C[C@H]4CC[C@@H](C3)N4C(=O)[C@@H]3CC3(F)F)n2)cn1 (10 µM)
0: all assays above

COc1ccc(C2CC(c3ccccc3)=NN2c2ccc(S(N)(=O)=O)cc2)cc1 (stereo not given) (10 µM)
0: all assays above

c1cn2cc(-c3ccc4cn[nH]c4c3)nc(Nc3ccc(N4CCOCC4)cc3)c2n1 [Entospletinib] (10 µM)
0: all assays above

CNCc1ccccc1-c1csc([C@@H](C)Nc2nc(C)nc3cc(OC)c(OC)cc23)c1 (2.5 µM)
1: [4] | [10]
3: [8]
2: [5]
0: all other assays above

Cn1cnc(-c2cc3nccc(Oc4ccc(NC(=S)NC(=O)Cc5ccccc5)cc4F)c3s2)c1 [MGCD-265 analog] (10 µM)
4: [5]
1: [6]
2: [3]
0: all other assays above

O=C(/C=C/c1ccc(O)c(O)c1)OC1CC(OC(=O)/C=C/c2ccc(O)c(O)c2)(C(=O)O)CC(O)C1O (stereo not given) [1,3-Dicaffeoylquinic acid] (10 µM)
0: all assays above

COc1cc([N+](=O)[O-])ccc1S(=O)(=O)N1C[C@@H](CN2CCN(c3ccccn3)CC2)[C@H](c2cccc(F)c2)C1 (relative stereo) (10 µM)
0: all assays above

C#CCN(C)C(=O)CCNc1nc(N2CCN(C(=O)C=C)CC2)c2cc(Cl)c(-c3c(O)cccc3F)c(F)c2n1 [ARS-1323-alkyne] (2.5 µM)
0: all assays above

The list goes on.

CC[C@@]1(c2ccccc2)C2=C(CC(C)(C)CC2=O)Nc2[nH]ncc21 (10 µM)
0: all assays above

CN1CCN(c2ccc(C(=O)Nc3cc(-c4cccc(NS(=O)(=O)c5ccccc5)c4)[nH]n3)cc2)CC1 [BPR1J-097 Hydrochloride] (2.5 µM)
0: all assays above

CCN(CC)c1ccc2cc(C(=O)N3CCN(C(=O)C4=Cc5c(Br)cccc5S4(=O)=O)CC3)c(=O)oc2c1 (2 µM)
0: all assays above

COc1ccc(C(=O)Nc2sc3c(c2C(N)=O)CCCC3)cc1OC (10 µM)
0: all assays above

O=C(NCCCNC(=O)Nc1cccc(C2=NCCN2)c1)Nc1cccc(C2=NCCN2)c1 [p32 Inhibitor M36] (10 µM)
0: all assays above

O=[N+]([O-])c1cc(C(F)(F)F)cc([N+](=O)[O-])c1NNC(=S)Nc1ccc(F)cc1 (10 µM)
0: all assays above

CC(=O)c1c(C)c2cnc(Nc3ccc(N4CCN(CCCCNC(=O)COc5cccc6c5C(=O)N(C5CCC(=O)NC5=O)C6=O)CC4)cn3)nc2n(C2CCCC2)c1=O (stereo not given) (10 µM)
0: all assays above

COc1ccc([C@H]2c3[nH]c4ccc(Cl)cc4c3CCN2C(=O)Oc2ccc(Cl)cc2)cc1 (2.5 µM)
2: [7]
0: all other assays above

O=C1NC(=O)/C(=C/c2ccc3c(c2)OC(F)(F)O3)S1 (10 µM)
0: all assays above

COc1cc2ncnc(Nc3cccc(Cl)c3)c2cc1OC (10 µM)
0: all assays above

Cn1c(=O)c(F)c(Nc2ccc(I)cc2F)c2c(=O)n(C[C@@H](O)CO)cnc21 (10 µM)
1: [5]
0: all other assays above

CN(CC(=O)N(Cc1ccc(C2CCCCC2)cc1)c1ccc(C(=O)O)cc1)S(=O)(=O)c1c(F)c(F)c(F)c(F)c1F (2.5 µM)
0: all assays above

Cc1cc(Nc2cc3ncccc3c(N[C@@H]3C[C@H]4CC[C@@H](C3)N4CCC#N)n2)n[nH]1 [Izencitinib] (10 µM)
0: all assays above

CC(C)=CC[C@H](O)C1=CC(=O)c2c(O)ccc(O)c2C1=O [(-)-Alkannin] (2.5 µM)
0: all assays above

CN1CCN(c2ccc(Nc3ncc4nc(Nc5ccccc5)n([C@@H]5CCN(S(=O)(=O)C6CC6)C5)c4n3)cc2)CC1 (2.5 µM)
3: [5]
4: [3]
0: all other assays above

COc1ccc(Cn2cc(C(=O)N=Nc3c(O)[nH]c4c(C)cccc34)nn2)cc1 [MARK4 inhibitor 1] (10 µM)
0: all assays above

Cc1cc2cc(Nc3ccnc(Nc4ccc5[nH]c(C)cc5c4)n3)ccc2[nH]1 (2.5 µM)
1: [3]
0: all other assays above

COc1ccc2c(c1O)OC(C)(C)c1c-2ccc2c1C(=O)N(c1ccc(C(=O)c3ccccc3)cc1)C2=O [Ampkinone] (10 µM)
0: all assays above

COc1ccc(Cl)cc1NC(=O)Nc1cc(C)nc2ccccc12 (2.5 µM)
0: all assays above

OC[C@H]1O[C@@H](Oc2cc3c(O)cc(O)cc3[o+]c2-c2cc(O)c(O)c(O)c2)[C@H](O)[C@@H](O)[C@@H]1O [Delphinidin 3-glucoside (chloride)] (10 µM)
0: all assays above

Cc1c(CN2CCN(S(C)(=O)=O)CC2)sc2c(N3CCOCC3)nc(-c3cnc(N)nc3)nc12 (2.5 µM)
3: [1] | [7]
1: [3] | [6]
0: all other assays above

CS(=O)(=O)c1ccc(-c2noc(C(F)(F)F)c2-c2ccccc2)cc1 (10 µM)
0: all assays above

O=C(Nc1ccc(F)cc1F)[C@H](NC(=S)Nc1cc(C(F)(F)F)cc(C(F)(F)F)c1)c1ccccc1 (2.5 µM)
0: all assays above

Reference: the supplement of paper PMC12823440, “Inhibitors supercharge kinase turnover through native proteolytic circuits” (Nature, 2025)
